Reference: PubChem BioAssay AID328 (DTP/NCI, 2004)
The list does not hold the whole screen: it is rich in T/C values a quarter to a half above the control, in often repeated tests (any T/C) and in doses without a T/C. Further doses and runs are listed elsewhere. T/C gives the treated animals as a percentage of the vehicle group. Some doses have a count of surviving animals in place of a T/C: the source files T/C as zero there, which appears to mark a toxic dose or a test without result, not a measured value. Some doses without a T/C left all or most animals alive at the check, yet need not have been tolerated: survival well below the control is almost never listed, so the zero probably covers shortened survival too. Survivors were counted at the toxicity check, usually on the fifth day, unless a day is given; later deaths do not show. Schedule codes are those of the source, read here as Q, the interval in days (D) or hours (H), X, the number of doses. For survival time, the PubChem record calls one and a half times the control and up active, and a quarter to a half above the control has no call in these data; cut-offs in other NCI protocols can differ. Some T/C values are followed by the survivors on the day toxicity was checked, most often the fifth; without a count, all were alive then. Some doses were run more than once; their values stand side by side, smallest first.

Test system: BDF1 mice, P388 leukemia ip, median survival T/C
Experiment: NCI In Vivo Anticancer Drug Screen. Data for tumor model P388 Leukemia (intraperitoneal) in B6D2F1 (BDF1) mice
Conditions: T/C endpoint: median survival time, higher T/C = longer survival
How it was run: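 In tumour-bearing mice, survival after compound treatment is set against the vehicle group and given as a quotient.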

[1] = dose: 200.0 mg/kg/injection, schedule: Q04DX003 (ip), vehicle: saline with Tween-80
[2] = dose: 400.0 mg/kg/injection, schedule: Q04DX003 (ip), vehicle: saline with Tween-80

Oc1ccccc1C=NCCN1CC1.Oc1ccccc1C=NCCN1CC1.[Ni+2]
T/C (dose: 25.0 mg/kg/injection, schedule: Q01DX009 (ip), vehicle: Klucel (hydroxypropylcellulose) (HPC)): 147 % of control
survivor count (dose: 25.0 mg/kg/injection, schedule: Q04DX003 (ip), vehicle: Klucel (hydroxypropylcellulose) (HPC)): 2 of 3
survivor count (dose: 50.0 mg/kg/injection, schedule: Q01DX009 (ip), vehicle: Klucel (hydroxypropylcellulose) (HPC)): 0 of 3
T/C (dose: 50.0 mg/kg/injection, schedule: Q04DX003 (ip), vehicle: saline sonified): 146 % of control
survivor count (dose: 100.0 mg/kg/injection, schedule: Q04DX003 (ip), vehicle: Klucel (hydroxypropylcellulose) (HPC)): 0 of 3
survivor count (dose: 100.0 mg/kg/injection, schedule: Q04DX003 (ip), vehicle: saline sonified): 1 of 6

COc1cccc(C)c1NC1=NCCO1
survivor count (dose: 3.13 mg/kg/injection, schedule: Q04DX003 (ip), vehicle: saline with Tween-80): 3 of 6
survivor count (dose: 6.25 mg/kg/injection, schedule: Q04DX003 (ip), vehicle: saline with Tween-80): 5 of 6

CCCCCCCCCCCCCCCC(=O)OCC1OC(CO)(OC2OC(CO)C(O)C(O)C2O)C(O)C1O (centres undefined)
survivor count (dose: 400.0 mg/kg/injection, schedule: Q04DX003 (ip), vehicle: Klucel (hydroxypropylcellulose) (HPC)): 2 of 6

Clc1nc2ccccc2nc1CI
T/C (dose: 4.12 mg/kg/injection, schedule: Q01DX009 (ip), vehicle: saline): 131 % of control
T/C (dose: 6.25 mg/kg/injection, schedule: Q01DX009 (ip), vehicle: saline with Tween-80): 140 % of control
T/C (dose: 6.25 mg/kg/injection, schedule: Q01DX009 (ip), vehicle: saline): 130 and 140 % of control [5 of 6 alive]
T/C (dose: 9.37 mg/kg/injection, schedule: Q01DX009 (ip), vehicle: saline): 136 % of control
survivor count (dose: 25.0 mg/kg/injection, schedule: Q01DX009 (ip), vehicle: saline with Tween-80): 6 of 6
survivor count (dose: 25.0 mg/kg/injection, schedule: Q01DX009 (ip), vehicle: saline): 1 of 6
survivor count (dose: 50.0 mg/kg/injection, schedule: Q04DX003 (ip), vehicle: saline with Tween-80): 6 of 6
survivor count (dose: 80.0 mg/kg/injection, schedule: Q04DX003 (ip), vehicle: saline): 4 of 6
survivor count (dose: 100.0 mg/kg/injection, schedule: Q04DX003 (ip), vehicle: saline with Tween-80): 4 of 6
survivor count (dose: 120.0 mg/kg/injection, schedule: Q04DX003 (ip), vehicle: saline): 4 of 6
survivor count [1]: 0 of 6
survivor count [2]: 0 of 6

CNC[C@@H](O)c1ccc(O)c(O)c1
survivor count (dose: 1.0 mg/kg/injection, schedule: Q01DX009 (ip), vehicle: saline): 6 of 6
survivor count (dose: 4.0 mg/kg/injection, schedule: Q01DX001 (ip), vehicle: saline): 2 of 6
survivor count (dose: 4.0 mg/kg/injection, schedule: Q04DX003 (ip), vehicle: saline): 6 of 6
T/C (dose: 5.9 mg/kg/injection, schedule: Q01DX009 (ip), vehicle: saline): 130 % of control [5 of 6 alive]
survivor count (dose: 8.0 mg/kg/injection, schedule: Q01DX001 (ip), vehicle: saline): 3 of 6
survivor count (dose: 8.0 mg/kg/injection, schedule: Q04DX003 (ip), vehicle: saline): 0 of 6
survivor count (dose: 13.0 mg/kg/injection, schedule: Q01DX009 (ip), vehicle: saline): 1 of 6
survivor count (dose: 16.0 mg/kg/injection, schedule: Q04DX003 (ip), vehicle: saline): 6 of 6

OCCCN1CCCCC1CO (centres undefined)
T/C (dose: 50.0 mg/kg/injection, schedule: Q01DX009 (ip), vehicle: saline): 135 % of control
T/C (dose: 100.0 mg/kg/injection, schedule: Q01DX009 (ip), vehicle: saline): 135 % of control

Nc1nc2c(ccc3ccccc32)s1
T/C (dose: 200.0 mg/kg/injection, schedule: Q01DX009 (ip), vehicle: saline with Tween-80): 126 % of control

CC(C)(C)Cc1cc(O)c2c(c1O)C(=O)c1ccccc1C2=O
survivor count [1]: 6 of 6
survivor count [2]: 6 of 6
